Results are given in words; binding and its absence hold for the method and conditions named. Binding seen in cells or lysates may run through a third protein. Here binding means that the protein was enriched with, or labelled near, the bait; the list need not be complete.

The assay deals with HIV-1 integrase with a C-terminal biotin acceptor sequence, biotinylated (virus NLXINB) (HIV-1). Description: affinity purification with mass spectrometry.

B1: TRAP1 (protein, UniProt Q12931 60-704)
chain: STQTAEDKEEPLHSIISSTESVQGSTSKHEFQAETKKLLDIVARSLYSEKEVFIRELISNASDALEKLRHKLVSDGQALPEMEIHLQTNAEKGTITIQDTGIGMTQEELVSNLGTIARSGSKAFLDALQNQAEASSKIIGQFGVGFYSAFMVADRVEVYSRSAAPGSLGYQWLSDGSGVFEIAEASGVRTGTKIIIHLKSDCKEFSSEARVRDVVTKYSNFVSFPLYLNGRRMNTLQAIWMMDPKDVREWQHEEFYRYVAQAHDKPRYTLHYKTDAPLNIRSIFYVPDMKPSMFDVSRELGSSVALYSRKVLIQTKATDILPKWLRFIRGVVDSEDIPLNLSRELLQESALIRKLRDVLQQRLIKFFIDQSKKDAEKYAKFFEDYGLFMREGIVTATEQEVKEDIAKLLRYESSALPSGQLTSLSEYASRMRAGTRNIYYLCAPNRHLAEHSPYYEAMKKKDTEVLFCFEQFDELTLLHLREFDKKKLISVETDIVVDHYKEEKFEDRSPAAECLSEKETEELMAWMRNVLGSRVTNVKVTLRLDTHPAMVTVLEMGAARHFLRMQQLAKTQEERAQLLQPTLEINPRHALIKKLNQLRASEPGLAQLLVDQIYENAMIAAGLVDDPRAMVGRLNELLVKALERH
As to B1, the binding result is “binds”.

These data come from article PMC3395635.
